{"source": "patent EP0442769A2", "about": "(priority 1990, dated 1991)", "data": [{"system": "globules rouges", "units": {"Rdt Encap (rendement d'encapsulation)": "%", "Rdt Glob (rendement globulaire)": "%", "Rdt Hb (rendement en hémoglobine)": "%", "Rdt Hte (rendement en hématocrite)": "%"}, "values": [{"compound": "O=C1CC[C@@]2(O)[C@H]3Cc4ccc(OP(=O)(O)O)c5c4[C@@]2(CCN3CC2CC2)[C@H]1O5", "note": "[naltrexone-3-phosphate]", "Rdt Encap (rendement d'encapsulation)": 72, "Rdt Glob (rendement globulaire)": 88, "Rdt Hb (rendement en hémoglobine)": 71, "Rdt Hte (rendement en hématocrite)": 75}, {"compound": "C=CCN1CC[C@]23c4c5ccc(OP(=O)(O)OP(=O)(O)OP(=O)(O)O)c4O[C@H]2C(=O)CC[C@@]3(O)[C@H]1C5", "note": "[naloxone-3-triphopshate]", "Rdt Encap (rendement d'encapsulation)": 37, "Rdt Glob (rendement globulaire)": 84, "Rdt Hb (rendement en hémoglobine)": 76, "Rdt Hte (rendement en hématocrite)": 79}, {"compound": "C=CCN1CC[C@]23c4c5ccc(OP(=O)(O)OC)c4O[C@H]2C(=O)CC[C@@]3(O)[C@H]1C5", "note": "[naloxone-3-phosphate(OMe)]", "Rdt Encap (rendement d'encapsulation)": 60, "Rdt Glob (rendement globulaire)": 86, "Rdt Hb (rendement en hémoglobine)": 84, "Rdt Hte (rendement en hématocrite)": 73}, {"compound": "C=CCN1CC[C@]23c4c5ccc(OP(=O)(O)O)c4O[C@H]2C(=O)CC[C@@]3(O)[C@H]1C5", "note": "[naloxone-3-phosphate]", "Rdt Encap (rendement d'encapsulation)": 56, "Rdt Glob (rendement globulaire)": 75, "Rdt Hb (rendement en hémoglobine)": 86, "Rdt Hte (rendement en hématocrite)": 83}, {"compound": "C=CCN1CC[C@]23c4c5ccc(OS(=O)(=O)O)c4O[C@H]2C(=O)CC[C@@]3(OS(=O)(=O)O)[C@H]1C5", "note": "[naloxone-3,14-disulfate]", "Rdt Encap (rendement d'encapsulation)": 71, "Rdt Glob (rendement globulaire)": 89, "Rdt Hb (rendement en hémoglobine)": 82, "Rdt Hte (rendement en hématocrite)": 83}, {"compound": "COP(=O)(O)Oc1ccc2c3c1O[C@H]1C(=O)CC[C@@]4(O)[C@@H](C2)N(CC2CC2)CC[C@]314", "note": "[naltrexone-3-phosphate(OMe)]", "Rdt Encap (rendement d'encapsulation)": 62, "Rdt Glob (rendement globulaire)": 86, "Rdt Hb (rendement en hémoglobine)": 81, "Rdt Hte (rendement en hématocrite)": 71}, {"compound": "O=C1CC[C@@]2(OS(=O)(=O)O)[C@H]3Cc4ccc(OS(=O)(=O)O)c5c4[C@@]2(CCN3CC2CC2)[C@H]1O5", "note": "[naltrexone-3,14-disulfate]", "Rdt Encap (rendement d'encapsulation)": 51, "Rdt Glob (rendement globulaire)": 88, "Rdt Hb (rendement en hémoglobine)": 71, "Rdt Hte (rendement en hématocrite)": 74}, {"compound": "O=C1CC[C@@]2(O)[C@H]3Cc4ccc(OP(=O)(O)OP(=O)(O)OP(=O)(O)O)c5c4[C@@]2(CCN3CC2CC2)[C@H]1O5", "note": "[naltrexone-3-triphosphate]", "Rdt Encap (rendement d'encapsulation)": 34, "Rdt Glob (rendement globulaire)": 93, "Rdt Hb (rendement en hémoglobine)": 86, "Rdt Hte (rendement en hématocrite)": 90}]}]}
